Measurements reported in PubChem BioAssay AID652272 (Drosophila RNAi Screening Center, 2013).

- Test: 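Genes whose knock-down decreases or increases Hedgehog reporter output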 (primary screen)
- Cells: Drosophila clone 8 (Cl8) cells
- Reagents: long dsRNA against Drosophila genes
- Read-out: 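Plate reader light from a firefly reporter under a ptc promoter fragment that responds to Hedgehog, with Renilla light as transfection reference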
- Reading the numbers: firefly Hh reporter signal: higher = more ptc reporter light; Renilla reference signal: higher = more Renilla control light
- Call rule: 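Called a hit if the two-replicate mean z-score lies below -2 or above +3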
- Calls: active = hit: reporter lowered or raised; inactive = not a hit
The screen tested about 21,000 reagents; below is an unselected part of those that have a named target and a result. Over the whole deposit, 503 (2.4%) got an active call. 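Raw plate light values, not normalised; calls rest on replicate z-scores that were not deposited; hits include reporter decreases as well as increases.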 Not stated in the record: the amount of reagent, the time to read-out.

no.	Target gene	amplicon	firefly Hh reporter signal, replicate 1	firefly Hh reporter signal, replicate 2	Renilla reference signal, replicate 1	Renilla reference signal, replicate 2	call
1	CG11149	DRSC02130	88058	56208	2285	4757	inactive
2	Lint-1	DRSC19822	1.51e5	86251	3411	2016	inactive
3	CG11095	DRSC19375	1.04e5	97800	2397	2532	inactive
4	Trxr1	DRSC18668	1.05e5	1.01e5	2185	2320	inactive
5	Ebp	DRSC04048	1.01e5	66009	4644	3067	inactive
6	CG3592	DRSC18315	1.04e5	1.70e5	4247	6583	inactive
7	CG18540	DRSC06767	97906	50658	2042	3178	inactive
8	MED6	DRSC16500	1.06e5	78541	4081	2501	inactive
9	scpr-B	DRSC15200	1.32e5	1.19e5	5365	4439	inactive
10	CG14567	DRSC11728	1.15e5	1.18e5	3799	6423	inactive
11	CG4842	DRSC10453	1.42e5		1381	4465	inactive
12	Saysd1	DRSC14664	5.14e5	99760	25772	6872	inactive
13	kl-3 (retired record)	DRSC20730	5.22e5	1.93e5	29863	4112	inactive
14	kl-3 (retired record)	DRSC20891	61241	1.99e5	1015	7917	inactive
15	kl-3 (retired record)	DRSC20934	5.42e5	2.18e5	33043	4661	inactive
16	CG10747	DRSC02104	58682	30540	1640	3760	inactive
17	daw	DRSC00479	78641	73670	3591	3101	inactive
18	CG11634	DRSC03700	93736	42972	2631	4373	inactive
19	spag4	DRSC02973	79931	56547	2074	5233	inactive
20	CG4887	DRSC00670	1.64e5	1.56e5	4069	4001	inactive
21	Or33c	DRSC03388	99921	46290	1880	3813	inactive
22	Prosbeta6	DRSC11256	33168	30730	2563	1685	active
23	Rab19	DRSC11260	63280	53479	6338	3837	inactive
24	CG5111	DRSC15717	4.92e5	89876	25410	2585	inactive
25	CtIP	DRSC11785	1.08e5	87797	3901	2736	inactive

Look-ups from the entries so far:
CG11149 [DRSC02130], firefly Hh reporter signal, replicate 1 → 88058
Result of MED6 [DRSC16500] under “firefly Hh reporter signal, replicate 1”: 1.06e5
For “Renilla reference signal, replicate 1”, CG11634 [DRSC03700] shows 2631
Value for Ebp [DRSC04048] under “Renilla reference signal, replicate 2”: 3067
daw [DRSC00479], firefly Hh reporter signal, replicate 1 = 78641
Entry for CG11095 [DRSC19375] under “Renilla reference signal, replicate 1”: 2397

Further records follow:
no.	Target gene	amplicon	firefly Hh reporter signal, replicate 1	firefly Hh reporter signal, replicate 2	Renilla reference signal, replicate 1	Renilla reference signal, replicate 2	call
26	Teh3	DRSC08537	83933	41740	2763	2912	inactive
27	Ssadh	DRSC15621	1.01e5	85782	2408	2562	inactive
28	Rsph9	DRSC01594	1.76e5	2.69e5	9089	13027	inactive
29	CG5149	DRSC02819	48065	73344	2324	2730	inactive
30	CG9626	DRSC16525	97385	72043	3553	2424	inactive
31	CG32259	DRSC08082	1.14e5	3.26e5	3408	11205	inactive
32	G6P	DRSC00414	1.20e5	90704	2708	2529	inactive
33	Fkbp12	DRSC07425	1.13e5	65904	2710	4304	inactive
34	CG6738	DRSC16104	4.82e5	93248	25638	3500	inactive
35	GCS2beta	DRSC02960	5.09e5	85610	3501	3501	inactive
36	Spc105R	DRSC11663	85185	86912	3562	2869	inactive
37	Ir62a	DRSC08250	65287	36817	1975	3248	inactive
38	Cpr60D	DRSC04492	81590	53900	2633	5052	inactive
39	Pcmt	DRSC12363	1.19e5	1.44e5	2800	4384	inactive
